Measurements reported in PubChem BioAssay AID1117319 (Southern Research Institute, 2015).
Among all 260,000 compounds or so, about 1,500 (0.58%) were called active. The shares of active, inactive and inconclusive entries below differ from those in the screen.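 The calls were made as follows: active = inhibition above a set limit at one or more doses, reproduced on every date tested; inconclusive = results disagree between test dates, or hit never tested in dose response; inactive = the rest.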

By UniProt entry, the sequences of proteins in these tests, tags left out. Where a name states a change or a piece, a line headed by the entry shows the natural chain unless it says otherwise.
UniProt P69720: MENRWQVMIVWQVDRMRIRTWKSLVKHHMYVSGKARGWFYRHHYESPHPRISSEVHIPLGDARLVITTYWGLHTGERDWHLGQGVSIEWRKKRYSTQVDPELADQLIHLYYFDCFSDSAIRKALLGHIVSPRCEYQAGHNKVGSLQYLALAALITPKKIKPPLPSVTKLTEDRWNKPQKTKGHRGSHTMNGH
UniProt P69721: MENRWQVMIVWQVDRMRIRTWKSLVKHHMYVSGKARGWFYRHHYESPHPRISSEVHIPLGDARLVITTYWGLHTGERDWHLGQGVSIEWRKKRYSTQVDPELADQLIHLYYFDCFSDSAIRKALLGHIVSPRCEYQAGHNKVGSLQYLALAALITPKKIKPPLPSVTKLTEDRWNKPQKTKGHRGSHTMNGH
UniProt P69722: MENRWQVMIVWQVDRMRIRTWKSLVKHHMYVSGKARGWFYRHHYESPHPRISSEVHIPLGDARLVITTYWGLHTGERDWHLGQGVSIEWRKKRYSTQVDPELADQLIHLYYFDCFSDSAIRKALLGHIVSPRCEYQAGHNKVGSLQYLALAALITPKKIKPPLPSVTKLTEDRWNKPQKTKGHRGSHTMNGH
UniProt P69723: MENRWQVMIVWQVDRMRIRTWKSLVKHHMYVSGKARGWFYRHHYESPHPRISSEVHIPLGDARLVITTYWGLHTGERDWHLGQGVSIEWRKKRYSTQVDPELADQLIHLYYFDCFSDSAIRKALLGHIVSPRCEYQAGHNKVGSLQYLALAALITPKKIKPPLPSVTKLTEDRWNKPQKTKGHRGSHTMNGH
UniProt Q9HC16: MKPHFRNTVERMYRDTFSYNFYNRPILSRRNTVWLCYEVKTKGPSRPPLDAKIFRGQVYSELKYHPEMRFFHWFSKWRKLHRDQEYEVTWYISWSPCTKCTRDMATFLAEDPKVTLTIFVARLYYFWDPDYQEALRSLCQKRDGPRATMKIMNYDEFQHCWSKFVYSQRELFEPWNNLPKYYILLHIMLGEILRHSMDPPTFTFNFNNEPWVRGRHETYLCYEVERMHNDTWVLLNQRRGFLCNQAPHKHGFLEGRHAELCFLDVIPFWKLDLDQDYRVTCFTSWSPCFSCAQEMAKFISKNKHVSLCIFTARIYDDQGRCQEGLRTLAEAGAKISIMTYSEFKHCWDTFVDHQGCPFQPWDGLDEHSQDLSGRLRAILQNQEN

target: Virion infectivity factor (Human immunodeficiency virus type 1 group M subtype B (isolate BH10)) + Virion infectivity factor (Human immunodeficiency virus type 1 group M subtype B (isolate BRU/LAI)) + Virion infectivity factor (Human immunodeficiency virus type 1 group M subtype B (isolate PCV12)) + Virion infectivity factor (Human immunodeficiency virus type 1 group M subtype B (isolate HXB2)) + DNA dC->dU-editing enzyme APOBEC-3G (Homo sapiens) (UniProt P69720+P69721+P69722+P69723+Q9HC16); assay: inhibitors of Vif binding to APOBEC3G peptide, primary screen, biochemical, TR-FRET, GST-Vif 1-94, biotin-A3G peptide, dose response retest (AID 1117319); conditions: stronger effect = higher value;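 also: Vif residues 1-94 fused to GST binding biotinylated APOBEC3G peptide 110-148; 0% = full assay without inhibitor and 100% = GST in place of GST-Vif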

| SMILES | inhibition |
| --- | --- |
| O=C(CSc1nnc(Cc2ccccc2)n1-c1ccc(F)cc1)N1CCOCC1 | inconclusive: 38.8% |
| CN1C(=O)N(C)C2CC1N(C)C(=O)N2C | inconclusive: 39.7% |
| COc1ccc(/C=N/Nc2cc(C)nc(N)n2)cc1 | inconclusive: 40.4% |
| CCCc1c(OCCCCc2nn[nH]n2)ccc(C(C)=O)c1O | inconclusive: 40.6% |
| Cc1ccc(OCC(=O)Nc2ccc(-c3nc4ncccc4o3)cc2)cc1 | inconclusive: 33.9% |
| Cc1ccc(OCCCn2c(CO)nc3ccccc32)cc1 | inconclusive: 42% |
| COC(=O)CSc1nnc(-c2ccc(S(=O)(=O)N3CCCCC3)cc2)o1 | inconclusive: 54.8% |
| O=C(Nc1ccc2c(c1)OCO2)C1CCN(C(=O)c2ccc([N+](=O)[O-])cc2)CC1 | inconclusive: 34.5% |
| O=c1[nH]c2sc3c(c2c2nncn12)CCCC3 | inactive: 24.3% |
| CCOC(=O)c1cnn(-c2ncnc3sc4c(c23)CCC4)c1N | inconclusive: 45.5% |
| CCOC(=O)Cn1nc(C)cc1NC(=O)c1ccncc1 | inconclusive: 60.2% |
| O=C1C(CSCc2ccccc2)NC(=S)N1c1ccccc1 (stereo unspecified) | inconclusive: 33.4% |
| O=C(c1cc(-c2ccccn2)nc2ccc(Cl)cc12)N1CCN(CCc2ccccc2)CC1 | inconclusive: 53% |
| CC1CC(CCC(=O)NC(=S)Nc2ccc(Cl)cn2)C(=O)O1 (stereo unspecified) | inconclusive: 34.1% |
| COc1cc2c(cc1NC(=O)c1cccnc1)CCCC2 | inconclusive: 50.5% |
| COc1ccc(OC)c(-n2c(-c3ccc(S(C)(=O)=O)cc3)cc(C=O)c2C)c1 | inconclusive: 34.9% |
| Cc1ccc(N(CC(=O)NC(C)(C)C)C(=O)CS(=O)CC(=O)Nc2ccc(F)cc2)cc1 (stereo unspecified) | inactive: 10.4% |
| CCc1cc2c(C)cc(=O)oc2cc1OC(=O)C1CCCN1C(=O)OC(C)(C)C (stereo unspecified) | inconclusive: 33.9% |
| O=C(O)CC[C@@H](C(=O)O)N1C(=O)c2ccccc2C1=O | inconclusive: 39.9% |
| O=C(OC(C(=O)NCC1CCCO1)c1ccccn1)c1cccs1 (stereo unspecified) | inconclusive: 44.6% |
| Cc1cc(C)c(C#N)c(Oc2ccc(O)cc2)n1 | inactive: 0.3% |
| N#Cc1c(N)oc(-c2ccco2)c1-c1ccco1 | inconclusive: 55.5% |
| CCOC(=O)c1c(NC(C)=O)sc2c1CCC(C=O)=C2Sc1ccccc1 | inconclusive: 41.4% |

| SMILES | inhibition |
| --- | --- |
| CCCCN1c2cc(C)c(O)cc2C(C(=O)OCC)C1C (stereo unspecified) | inconclusive: 37.2% |
| Cc1csc(SCC(=O)NC2CCCCC2)n1 | inconclusive: 40.4% |
| CCC1=NN(C(=O)Cc2ccc([N+](=O)[O-])cc2)C(O)(C(F)(F)F)C1 (stereo unspecified) | inactive: 17.1% |
| CC1=C(C(=O)OCc2ccccc2)C(c2ccc([N+](=O)[O-])cc2)NC(=O)N1CCCCCC(=O)O (stereo unspecified) | inconclusive: 40.6% |
| N#Cc1cc2c(nc1SCC(=O)N1CCCCC1)CCCC2 | inconclusive: 45.9% |
| CS(=O)(=O)N(CC(=O)NCc1ccc2c(c1)OCO2)Cc1ccc(Cl)cc1 | inconclusive: 35.8% |
| c1ccc(Cn2ncc3c(NCc4ccco4)ncnc32)cc1 | inconclusive: 40.3% |
| CC1=CC(C)C(/C=N/N=C(N)N)C(C)C1 (stereo unspecified) | inconclusive: 33.9% |
| COc1ccc(N2CCN(C(=O)CN3C(=O)C4CC=CCC4C3=O)CC2)cc1 (stereo unspecified) | inconclusive: 33.7% |
| Cc1nc(-c2cccc(NC(=O)C3CCCCC3)c2)cs1 | inconclusive: 54.2% |
| Cc1ccc(C)c(SCC(=O)Nc2cc(C)nn2-c2ccc(F)cc2)c1 | inconclusive: 45.3% |
| c1ccc2c(-c3cc(C4CCNCC4)[nH]n3)cccc2c1 | inconclusive: 47.1% |
| O=S(=O)(c1ccccc1)C(/C=N\O)/C=C/c1ccccc1 (stereo unspecified) | inconclusive: 54.3% |
| O=C(c1cccc(C(F)(F)F)c1)C1CCCN(Cc2cccc(OCCO)c2)C1 (stereo unspecified) | inconclusive: 38.6% |
| CCOc1cc(/C=C2\N=C(SC)SC2=O)cc([N+](=O)[O-])c1OC(C)=O | inconclusive: 33.3% |
| O=C(NCC(c1cccs1)N1CCOCC1)c1ccco1 (stereo unspecified) | inconclusive: 49.1% |
| CCCCCCCCCCS(=O)(=O)N/N=C/c1ccccc1OC | inconclusive: 39.7% |
| O=C(CSc1n[nH]c(-c2ccco2)n1)N1c2ccccc2Sc2ccccc21 | inconclusive: 33.5% |
| CC(NC(=O)c1ccc2nc(Cc3cccc(Cl)c3)oc2c1)c1ccncn1 (stereo unspecified) | inactive: 0.5% |
| COc1ccc(C(=O)C[n+]2ccc(-c3nnc4n3CCC4)cc2)cc1 | inconclusive: 40.1% |
| CCc1cc(N2CCOCC2)cc2c1[nH]c1ccccc12 | inconclusive: 45% |
| Cc1ccc(C(=O)Oc2cccc(NC(=O)c3cccs3)c2)cc1S(=O)(=O)N1CCOCC1 | inconclusive: 61.6% |
| CC1CC1C(=O)OCC(=O)Nc1ncc(Cl)cc1Cl (stereo unspecified) | inactive: 6.04% |

| SMILES | inhibition |
| --- | --- |
| Cc1noc(C)c1CSc1nnc(C)c(=O)[nH]1 | inconclusive: 33.6% |
| COC(=O)c1cc2occc2n1CC(=O)N(C)C1CCCCC1 | inactive: 15.2% |
| CCOCCCNC(=O)Cn1cc2c(n1)CCCC2 | inconclusive: 48.9% |
| CCOC(=O)C1=C(c2ccccc2)NC(SCC(=O)Nc2ccc(C)cc2)=C(C#N)C1c1ccco1 (stereo unspecified) | inconclusive: 34.8% |
| O=C(CSc1nnc(CNC(=O)c2cccs2)o1)c1ccc(Cl)cc1 | inconclusive: 42.4% |
| COc1ccc(C(=O)COC(=O)c2cccc(-n3cnnn3)c2)c(OC)c1 | inactive: 3.56% |
| NC(=O)/C(=C\c1ccco1)NC(=O)c1ccco1 | inactive: 13.1% |
| CS(=O)(=O)N1CC(C(=O)NC2CCCC2)Oc2ccc(Cl)cc21 (stereo unspecified) | inconclusive: 50.1% |
| C=CCNC(=O)/C(C#N)=C\c1cc(Cl)c(O)c(OCC)c1 | inconclusive: 42.6% |
| Cc1ccc2cc3c(NC(=O)CC(C)C)nn(C)c3nc2c1 | inconclusive: 38.5% |
| CN1CCC(=NNC(=O)C(=O)Nc2cccc(Br)c2)CC1 | inconclusive: 45.6% |
| CCN(CC)CCCNc1nc(CN2CCOCC2)nc2sc3c(c12)CCC3 | inconclusive: 51% |
| CCOC(=O)c1c(NC(=O)CN2C(=O)c3ccccc3C2=O)sc(Cc2ccc3c(c2)OCO3)c1C | inconclusive: 41.8% |
| O=C1Nc2ccccc2N2CCCC12 (stereo unspecified) | inactive: -3.06% |
| O=C1NC[C@@H](Cc2cccc3ccccc23)N(CC2CCCCC2)C1=O | inactive: 5.43% |
| O=C(Nc1ccccc1C1CC1)c1cccs1 | inconclusive: 22.3% |
| O=C(Nc1cccc2cccc(NC(=O)c3ccco3)c12)c1ccco1 | inconclusive: 37.3% |
| Cn1c(=O)c(C(=O)COC(=O)c2cc(-c3ccco3)nc3ccccc23)c(N)n(CC2CC2)c1=O | inconclusive: 59.3% |
| CCOC(=O)C1=C(C)C2C3C(=O)N(c4cc(C)ccc4C)C(=O)C3C1(C)C1C(=O)N(c3cc(C)ccc3C)C(=O)C21 (stereo unspecified) | inconclusive: 58.5% |
| O=C(c1ccc(C(F)(F)F)cc1)n1ccc(-c2cccs2)n1 | inconclusive: 41.1% |
| Cc1ccc(S(=O)(=O)Nc2c(C)n(C)n(-c3ccccc3)c2=O)cc1 | inconclusive: 37.8% |
| Cc1cc(NC(=O)Nc2ccc(F)cc2F)n(C)n1 | inactive: -0.16% |
| O=C(COC(=O)/C=C/c1ccco1)Nc1ncc(Cl)cc1Cl | inconclusive: 46.4% |

Given with bars between the fields: entries from further up
SMILES | inhibition
N#Cc1c(N)oc(-c2ccco2)c1-c1ccco1 | inconclusive: 55.5%
CC1=CC(C)C(/C=N/N=C(N)N)C(C)C1 (stereo unspecified) | inconclusive: 33.9%
O=S(=O)(c1ccccc1)C(/C=N\O)/C=C/c1ccccc1 (stereo unspecified) | inconclusive: 54.3%
CCOCCCNC(=O)Cn1cc2c(n1)CCCC2 | inconclusive: 48.9%

Later entries

| SMILES | inhibition |
| --- | --- |
| CCOC(=O)C1=C(C)OC(N)=C(C#N)C1c1c(C)nn(-c2ccc(C)cc2)c1Cl (stereo unspecified) | inactive: 1.7% |
| O=C(Nc1ccc(Br)cn1)C1CCCN1S(=O)(=O)c1ccccc1 (stereo unspecified) | inactive: 4.08% |
| Cc1ccc(NC(=O)CN(C)C(=O)c2cc(-c3ccco3)nc3ccccc23)cc1 | inactive: 55.7% |
| O=C(NC(=S)NCc1ccccc1)C1CC1 | inconclusive: 37.2% |
| COC(=O)c1ccc(-n2nc(C(F)(F)F)c3c2-c2ccoc2CC3)cc1 | inactive: 14.2% |
| CCOC(=O)C(=O)C1C(=O)Nc2ccccc21 (stereo unspecified) | inconclusive: 61.9% |
| O=C(Nc1c(Cl)cccc1Cl)c1ccc(-c2ccccc2)cc1 | inconclusive: -0.33% |
| COc1ccc(CN2C(=O)c3cccnc3C2=O)cc1S(=O)(=O)N1CCCCC1C (stereo unspecified) | inactive: 1.43% |
| Cc1cc(C)cc(NC(=O)COc2ccc3c(C)c(Cc4ccccc4)c(=O)oc3c2)c1 | inconclusive: 41.6% |
| COC(=O)c1ccccc1NC(=O)CN1CCC(C)CC1 | inactive: 26.5% |
| COCc1cc(=O)[nH]c(N2CCN(C(=O)c3ccco3)CC2)n1 | inactive: -8.81% |
| O=C(NCc1ccc2c(c1)OCO2)C1CCN(S(=O)(=O)c2cccs2)CC1 | inconclusive: 32.4% |
| CC1CN(S(=O)(=O)c2ccc(Cl)c(S(=O)(=O)N3CC(C)OC(C)C3)c2)CC(C)O1 (stereo unspecified) | inconclusive: 43.6% |
| c1ccc2c(c1)sc1nnnn12 | inconclusive: 57.9% |
| Cc1occc1C(=O)NCc1ccco1 | inconclusive: 33.5% |
| Cc1ccc(SCC(=O)NN=C2CCN(C)CC2)cc1 | inconclusive: 33.3% |
| COc1cc(OC)cc(C(=O)Nc2ccc(S(=O)(=O)Nc3cc(C)nc(C)n3)cc2)c1 | inconclusive: 48.6% |
| O=C(NC(=S)NNS(=O)(=O)c1ccccc1)c1ccccc1[N+](=O)[O-] | inconclusive: 34% |
| CCCC(=O)c1c(NC(C)C)cc(C)oc1=O | inconclusive: 46.8% |
| NC(Cc1ccc(O)c([N+](=O)[O-])c1)C(=O)O (stereo unspecified) | inconclusive: 35.7% |
| COc1cccc(/C=C/C(=O)NNC(=O)CCN2CCN(Cc3ccccc3)CC2)c1 | inconclusive: 49.3% |
| CCOc1c(Br)cc(/C=C2/SC(=O)N(CC(=O)N3CCCC3)C2=O)cc1OC | inconclusive: 43.1% |

By substructure: those above containing a tert-butyl group (2)

| SMILES | inhibition |
| --- | --- |
| Cc1ccc(N(CC(=O)NC(C)(C)C)C(=O)CS(=O)CC(=O)Nc2ccc(F)cc2)cc1 (stereo unspecified) | inactive: 10.4% |
| CCc1cc2c(C)cc(=O)oc2cc1OC(=O)C1CCCN1C(=O)OC(C)(C)C (stereo unspecified) | inconclusive: 33.9% |
